According to paper PMC13384796:
These are yes or no findings as the source states them, for the method shown. Some binding calls cover weakened binding; strength is not graded here.

Protein sequences, listed by entry. Tags and fused reporters are not part of them. Residues count along the entry.
UniProt P01267, residues 20-2769: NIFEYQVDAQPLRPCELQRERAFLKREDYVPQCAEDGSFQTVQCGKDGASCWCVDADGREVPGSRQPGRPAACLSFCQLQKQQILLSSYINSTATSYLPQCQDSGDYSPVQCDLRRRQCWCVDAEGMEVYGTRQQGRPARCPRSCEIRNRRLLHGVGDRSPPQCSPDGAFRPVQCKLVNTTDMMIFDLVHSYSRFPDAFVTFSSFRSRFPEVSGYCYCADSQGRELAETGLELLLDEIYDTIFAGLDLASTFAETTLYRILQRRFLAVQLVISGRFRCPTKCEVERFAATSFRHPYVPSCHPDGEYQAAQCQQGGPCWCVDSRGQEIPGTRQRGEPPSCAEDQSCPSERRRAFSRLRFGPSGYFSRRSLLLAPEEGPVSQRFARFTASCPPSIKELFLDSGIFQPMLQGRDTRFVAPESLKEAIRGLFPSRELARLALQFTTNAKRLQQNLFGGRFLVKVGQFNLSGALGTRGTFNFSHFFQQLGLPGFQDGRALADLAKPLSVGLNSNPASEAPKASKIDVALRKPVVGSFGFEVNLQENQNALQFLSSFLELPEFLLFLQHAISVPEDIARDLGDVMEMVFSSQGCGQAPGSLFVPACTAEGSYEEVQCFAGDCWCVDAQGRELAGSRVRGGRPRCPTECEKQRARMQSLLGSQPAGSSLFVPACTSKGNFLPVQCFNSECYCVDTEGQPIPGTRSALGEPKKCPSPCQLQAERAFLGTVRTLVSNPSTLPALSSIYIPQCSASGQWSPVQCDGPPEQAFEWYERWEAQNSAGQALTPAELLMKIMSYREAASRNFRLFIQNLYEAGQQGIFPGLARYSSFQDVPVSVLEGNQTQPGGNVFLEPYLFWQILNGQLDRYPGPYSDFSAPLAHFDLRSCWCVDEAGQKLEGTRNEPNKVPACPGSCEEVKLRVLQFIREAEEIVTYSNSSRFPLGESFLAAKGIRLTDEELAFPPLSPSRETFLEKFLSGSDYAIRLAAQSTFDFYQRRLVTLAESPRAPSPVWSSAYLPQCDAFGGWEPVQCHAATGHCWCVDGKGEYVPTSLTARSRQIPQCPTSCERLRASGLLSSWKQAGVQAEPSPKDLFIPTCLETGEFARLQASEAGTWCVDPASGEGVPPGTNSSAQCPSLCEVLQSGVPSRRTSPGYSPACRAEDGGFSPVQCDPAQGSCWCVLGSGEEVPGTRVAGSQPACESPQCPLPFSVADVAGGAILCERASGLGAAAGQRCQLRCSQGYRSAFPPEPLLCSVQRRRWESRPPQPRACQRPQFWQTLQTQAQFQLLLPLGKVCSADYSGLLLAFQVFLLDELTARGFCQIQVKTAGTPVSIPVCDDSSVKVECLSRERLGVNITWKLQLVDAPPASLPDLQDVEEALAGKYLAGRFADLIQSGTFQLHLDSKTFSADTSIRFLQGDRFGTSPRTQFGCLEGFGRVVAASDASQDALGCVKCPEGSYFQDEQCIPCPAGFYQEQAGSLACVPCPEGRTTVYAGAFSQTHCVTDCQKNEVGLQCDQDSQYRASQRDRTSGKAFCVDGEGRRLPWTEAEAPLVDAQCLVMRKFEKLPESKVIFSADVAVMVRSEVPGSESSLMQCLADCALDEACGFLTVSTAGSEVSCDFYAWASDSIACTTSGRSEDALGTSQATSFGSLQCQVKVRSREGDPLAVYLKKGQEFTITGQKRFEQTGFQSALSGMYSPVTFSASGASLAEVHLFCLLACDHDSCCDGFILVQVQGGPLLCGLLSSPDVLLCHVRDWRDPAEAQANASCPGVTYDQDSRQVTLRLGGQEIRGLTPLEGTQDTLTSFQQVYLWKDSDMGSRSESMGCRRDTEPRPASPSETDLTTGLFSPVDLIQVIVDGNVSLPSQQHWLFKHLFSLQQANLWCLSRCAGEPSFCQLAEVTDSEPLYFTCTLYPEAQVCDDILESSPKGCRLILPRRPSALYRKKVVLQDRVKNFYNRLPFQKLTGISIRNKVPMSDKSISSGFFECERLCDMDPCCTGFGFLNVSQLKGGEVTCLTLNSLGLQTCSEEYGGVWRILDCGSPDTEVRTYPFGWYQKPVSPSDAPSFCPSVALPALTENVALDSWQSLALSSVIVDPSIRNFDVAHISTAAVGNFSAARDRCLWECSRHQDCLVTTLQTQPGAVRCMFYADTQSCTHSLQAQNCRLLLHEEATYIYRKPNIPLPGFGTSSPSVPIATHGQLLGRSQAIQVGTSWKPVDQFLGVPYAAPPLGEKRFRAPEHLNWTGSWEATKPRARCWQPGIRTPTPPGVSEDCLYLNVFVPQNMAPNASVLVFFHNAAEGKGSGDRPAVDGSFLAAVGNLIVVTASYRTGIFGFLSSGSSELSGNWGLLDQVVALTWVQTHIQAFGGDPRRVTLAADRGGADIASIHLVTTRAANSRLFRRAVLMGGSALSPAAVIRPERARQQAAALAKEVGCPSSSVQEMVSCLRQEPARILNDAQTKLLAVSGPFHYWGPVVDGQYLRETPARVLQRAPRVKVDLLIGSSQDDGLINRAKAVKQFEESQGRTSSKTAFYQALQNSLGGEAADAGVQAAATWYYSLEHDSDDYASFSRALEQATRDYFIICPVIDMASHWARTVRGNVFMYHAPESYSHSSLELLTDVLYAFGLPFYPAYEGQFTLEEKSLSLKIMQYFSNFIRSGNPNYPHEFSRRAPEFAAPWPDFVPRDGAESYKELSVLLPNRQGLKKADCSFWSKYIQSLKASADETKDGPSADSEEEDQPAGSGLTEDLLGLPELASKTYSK

Tests used:
[1] = target: bovine thyroglobulin (bovine) (UniProt P01267); test: ELISA; glycoprotein immobilised on MaxiSorp plates (sodium carbonate buffer pH 9.6, overnight); varying concentrations of biotinylated lectin; detected with fluorescent streptavidin; both purified
[2] = target: bovine thyroglobulin (bovine) (UniProt P01267); test: ELISA; ELISA-type competitive inhibition assay: thyroglobulin (5 µg/mL) or mucin (100 µg/mL) immobilised; 10 µg/mL biotinylated lectin incubated for 1 h together with varying concentrations of glyco-nanogel or free saccharide in PBS with 0.1 mM CaCl2; Atto488-streptavidin read-out; both purified

B1: Pseudomonas aeruginosa lectin LecA (protein, UniProt Q05097 1-122)
chain: MAWKGEVLANNEAGQVTSIIYNPGDVITIVAAGWASYGPTQKWGPQGDREHPDQGLICHDAFCGALVMKIGNSGTIPVNTGLFRWVAPNNVQGAITLIYNDVPGTYGNNSGSFSVNIGKDQS
modifications: biotin-labeled (site not stated)
What does the source list for B1?
binding [1]: binds; binding [2]: binds
